Experimental findings from PubChem BioAssay AID1347423 (Functional Genomics Laboratory (NCATS/FGL), 2020) are described below.

Out of some 52,000 sequences screened, about 210 (0.4%) were called active.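 The calls were made as follows: active = gene whose silencing raises cell survival under the drug, median off-target-corrected z-score across its silencing RNAs 2 or more; inactive = the rest.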 The list shows a part of the results.

The nature of this experiment: Resistance to Poly (ADP-Ribose) Polymerase inhibitor: Gene Identification via Genome-wide siRNA Screen. To be noted: mouse BRCA2 R2336H ES cells, olaparib, CellTiter-Glo viability; hits give high values. In outline:
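Mouse BRCA2 R2336H ES cells were reverse-transfected with siRNA (20 nM final), treated at 48 h with 500 nM olaparib, and read by CellTiter-Glo after 72 h. Scores: MAD-based z per siRNA, median per gene, seed off-target correction.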
For orientation: Cellular ATP, detected with luciferase, serves as a proxy for viable cell number.
As for “CCAAUAAGUGACCUUUUUUTT against 9930019B18Rik”, the z-score was inactive: -0.65. Take GGUAUUUUGGUGGACGGGUTT against Rbm17: the z-score was inactive: -1.29. In the case of “GGAUCUUGAAGACCAAAAATT against 9030409G11Rik”, the z-score is inactive: -0.527.

On to GCUGUUGUAACCAUAACAGTT against Ntsr1, for which the z-score was inactive: 0.932. “GCACUGGAAAAUUUCUAAUTT against 4933425M15Rik”: the z-score was inactive: 0.24. The value for GGAGAUCAAGAACUACGUCTT against Mrpl12 was inactive: 1.88. For the sequence GGAAGAUGGUAUUCCAUAUTT against Dmc1h, the z-score was inactive: 1.25. Regarding GCACAUCAUUUAUCAGACATT against Ramp3, the z-score is inactive: -0.178. As to GCCUCAAGGCAUUGGCAAGTT against LOC545475, the z-score is inactive: -0.616.

For CCCUAAUAGAACUAAUGAATT against Kpnb1, the z-score was inactive: -3.47. For the sequence CCAGUUGAAUUAGAAUCCATT against Ctns, the z-score was inactive: 1.51.

On to GGCCUUGCACUUCAGUUUCTT against AI317395, for which the z-score was inactive: 0.855.

Consider GGGACUUCAAAGCAGGUAGTT against Alx3, for which the z-score was inactive: -0.527. For CCUCCUGACUUGGAUAGAGTT against Agt, the z-score was inactive: 1.06.

With CGUGAACCGCCAGAAUGCUTT against Cdh5, the z-score was inactive: -0.228. On to GGACCAUAUGAACUUUAUUTT against Xpo7, for which the z-score was inactive: -0.659. “GGAAGACAAAUCAGAAAGUTT against 9530046H09Rik”: the z-score was inactive: 0.314. On to “GGAAGAGGACACAUUAGGCTT against 2410116G06Rik”, for which the z-score is inactive: 0.394. Take GGGAAGAUCUUCAAGAAGGTT against Pa2g4: the z-score was inactive: 0.217.

On to GCAUCUGAUCUACCAGUCGTT against BC012016, for which the z-score is inactive: 0.309.

For “GGCAACAGCCCAGAAAUUCTT against D930047P17Rik”, the z-score is inactive: 0.0872. Turning to “GGAUAAAGGCAAAGACAAATT against 1200013F24Rik”, the z-score is inactive: -1.33. As to “GGAUUAGGAAUUCUUGUGUTT against 1810049H13Rik”, the z-score was inactive: 0.168.

In the case of “GGUGAUAUGUGUGGGCUUGTT against B430104H02Rik”, the z-score was inactive: -1.44. Turning to GGUCUUCGAAGCUACGAUATT against Edem1, the z-score was inactive: 0.482.

Consider GGAGUCUCCAAUGAAAUGUTT against Kcnma1, for which the z-score was inactive: 1.49. For the sequence GGAGCAACAGAGAUUUCUUTT against Gnefr, the z-score is inactive: -0.971. Regarding GGGCAAUAAGAUGUACGUUTT against Eomes, the z-score was inactive: 0.885. GGACUACGUAUUUUCCCUGTT against Cyc1: the z-score was inactive: 0.324. For GGAGACAGGGUUUUUCCUGTT against Tap1, the z-score is inactive: 0.715. As to GGUUUCUUUUCCUCUGGGCTT against Gata1, the z-score was inactive: -0.507. Take GGACAUGCAUCUUGUUUUCTT against Olfr1307: the z-score is inactive: 0.906. In the case of GGGAAAAGUUUUGGAAAAUTT against Hps5, the z-score is inactive: -0.23.

With “GCCACGAGAAGUGAACCAATT against 9430023P16Rik”, the z-score is inactive: -2.36.

As to GGAUAAGAAGACCUGCAUCTT against Gng12, the z-score is inactive: 0.275. On to GGCCAAAGAAGAAUCUCCUTT against Aebp2, for which the z-score was inactive: -0.69. The value for GGUGUACGAUGCAGUACCCTT against Slamf8 was inactive: 0.298.

In the case of GGUUGUACGAUUAUAAAGGTT against Arih2, the z-score was inactive: 1.57. In the case of “GGCUAUGAAGACUGGGUUUTT against 4933413B09Rik”, the z-score is inactive: -1.34.

In the case of GGUAAUGGCUCACUUAAUATT against Malt1, the z-score was inactive: -1.4. Turning to GCUGUCAUGGGAAAAAUUGTT against Olfr729, the z-score was inactive: 0.689. GGAACAGAUGGGUGUGAAATT against Wnt2b: the z-score was inactive: -2.7. For the sequence CGACCAGCUUCUAGUGCUUTT against Pcdha8, the z-score is inactive: -1.64. “GGGUAGCUCAGAAAGGUUATT against 7530404M11Rik”: the z-score was inactive: 0.188.

As for CCAGGAAUUACUACGUCCGTT against Cyba, the z-score is inactive: -0.51. Regarding GGGAUGUUCUUCAAUCCUGTT against Nedl2, the z-score was inactive: 2.39. With CCUUUGAUUGACAGAAAGATT against Etv5, the z-score is inactive: 0.835. The value for GGGAACAUUUAUCCCUGUGTT against Olfr480 was inactive: -0.0358.

Turning to CCUUCUUUGUUCCAUAAGATT against Hapln2, the z-score is inactive: 0.826.

Regarding GGUCAGAGGUCGACCUAUUTT against Oas1h, the z-score is inactive: -0.863. As for GGCCCUCAUCAUAAAUGCUTT against Dctn6, the figure is inactive: -1.9; as for GCUCCAGAGUUCGUCUUUGTT against Zfp64, inactive: -2.31. For AGUACCCAUAUCAACGAAGTT against Olfr926, the z-score was inactive: -1.02. Take GGUGUCUCUGAUGAAUCACTT against Syt15: the z-score was inactive: 1.21. Regarding CCAAGAAUGCCCAGCAAGUTT against E4f1, the z-score is inactive: 0.559. Take GGAGGUCACUCUUAUCCACTT against Amid: the z-score is inactive: 0.435. In the case of “CGGGAGGUGAAUAUCGAUUTT against 6530413N01Rik”, the z-score was inactive: -1.05. Turning to CCUACAUUCACCAAAAGGUTT against Usp9y, the z-score was inactive: 0.561. In the case of “GGAAAACAGGCAGGACUUCTT against D930020B18Rik”, the z-score is inactive: 0.0852. For the sequence GGAUUCGUAAACUUCAGAUTT against Igf2bp3, the z-score was inactive: -0.353. Regarding GGAGGAACAGCAGAGAAGUTT against LOC230872, the z-score was inactive: 0.239.

Turning to GCGAGUGUAUGCUUGAGAATT against Hspa12b, the z-score is inactive: 0.0912. The value for “GGUGCUCCGAACAAGUUGATT against 2010110K16Rik” was inactive: 1.12; that for GCUACUACACGCAAGAUUUTT against Tex13 was inactive: -0.139.

For GGCUACCAAGUGUACCAUUTT against Syt15, the z-score was inactive: -1.14. Take GGUGCUUUUUUUGGAUCAATT against Olfr507: the z-score was inactive: -0.843.
